Results are given in words; binding and its absence hold for the method and conditions named. Binding seen in cells or lysates may run through a third protein. Some entries that bind do so weakly or less than the wild type.
Legend:
[1] = target: β2-adrenergic receptor C terminally fused with RlucII (β2AR-RlucII) (UniProt P07550); test: FRET or BRET; live HEK293 cells co-transfected with donor β2AR-RlucII or β1AR-RlucII and acceptor Gαq-Venus; stimulated 20 min with increasing concentrations of ISO; data as % of maximal ISO-induced Gαq recruitment to the β2AR
[2] = target: β1-adrenergic receptor fused to RlucII (β1AR-RlucII) (UniProt P08588); test: as above

By UniProt entry, the sequences of proteins in these tests, tags left out.
UniProt P08588: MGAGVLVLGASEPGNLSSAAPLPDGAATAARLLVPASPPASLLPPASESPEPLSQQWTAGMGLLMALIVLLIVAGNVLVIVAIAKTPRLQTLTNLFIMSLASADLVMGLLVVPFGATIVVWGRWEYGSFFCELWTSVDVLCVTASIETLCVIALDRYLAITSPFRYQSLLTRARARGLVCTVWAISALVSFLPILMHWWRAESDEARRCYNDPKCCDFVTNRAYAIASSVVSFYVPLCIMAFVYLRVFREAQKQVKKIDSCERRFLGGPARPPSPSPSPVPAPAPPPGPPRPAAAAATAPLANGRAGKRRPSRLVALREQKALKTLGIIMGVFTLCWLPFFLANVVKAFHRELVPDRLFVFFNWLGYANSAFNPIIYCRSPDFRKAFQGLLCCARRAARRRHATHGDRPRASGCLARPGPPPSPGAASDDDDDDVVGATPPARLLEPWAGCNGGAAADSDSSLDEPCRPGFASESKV
UniProt P50148: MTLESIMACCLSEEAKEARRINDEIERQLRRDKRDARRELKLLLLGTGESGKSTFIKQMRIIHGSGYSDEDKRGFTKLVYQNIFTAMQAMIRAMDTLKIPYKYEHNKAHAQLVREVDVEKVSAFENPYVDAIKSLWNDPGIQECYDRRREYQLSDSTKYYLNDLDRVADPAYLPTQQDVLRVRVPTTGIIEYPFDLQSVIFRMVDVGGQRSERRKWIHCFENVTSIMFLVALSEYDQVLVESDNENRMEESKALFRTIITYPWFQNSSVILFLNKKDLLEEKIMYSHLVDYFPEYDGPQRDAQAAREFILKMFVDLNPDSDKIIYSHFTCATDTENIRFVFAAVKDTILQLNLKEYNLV

In the case of “holo-Gαq subunit fused to Venus (Gαq-Venus) (from UniProt P50148 1-359)”, the binding [1] is reported as “binds” and the binding [2] is reported as “no binding”.

— PMC11570840
